Experiment [1] deals with ITK, endogenous in mouse splenic lymphocytes (mouse) (UniProt Q03526). The experiment in a line: competition shown indirectly: co-IP of ITK with SLP76 from stimulated splenic cells of peptide-injected mice.
Experiment [2] shares this target. Briefly: competition shown indirectly: co-IP of ITK with SLP76 from splenic cells of peptide-injected mice (figure legend, FIG. 7).

Amino acid sequences for entries named in this document (tags omitted).
UniProt Q03526: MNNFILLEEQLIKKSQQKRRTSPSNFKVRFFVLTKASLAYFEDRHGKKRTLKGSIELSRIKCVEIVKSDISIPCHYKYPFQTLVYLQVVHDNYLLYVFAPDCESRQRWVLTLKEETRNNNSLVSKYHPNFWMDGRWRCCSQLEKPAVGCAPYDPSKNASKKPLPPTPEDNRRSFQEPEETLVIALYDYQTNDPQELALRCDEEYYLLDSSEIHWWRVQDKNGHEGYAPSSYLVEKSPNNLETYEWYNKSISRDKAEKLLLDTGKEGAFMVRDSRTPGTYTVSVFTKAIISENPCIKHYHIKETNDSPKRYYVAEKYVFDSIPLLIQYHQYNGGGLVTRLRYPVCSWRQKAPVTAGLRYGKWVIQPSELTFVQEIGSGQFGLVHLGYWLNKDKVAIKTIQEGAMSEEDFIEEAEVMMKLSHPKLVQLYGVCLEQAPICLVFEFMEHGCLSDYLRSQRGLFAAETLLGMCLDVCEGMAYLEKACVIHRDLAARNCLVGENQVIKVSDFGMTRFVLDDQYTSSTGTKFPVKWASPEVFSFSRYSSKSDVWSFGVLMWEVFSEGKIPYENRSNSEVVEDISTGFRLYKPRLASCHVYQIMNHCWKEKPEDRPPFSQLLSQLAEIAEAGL

These results are taken from patent publication US20100287636A1, “COMPOSITIONS AND METHODS FOR INHIBITING INDUCIBLE T CELL KINASE (ITK) AND TREATING ASTHMA AND BRONCHIAL INFLAMMATIONS” (San Diego State University Foundation, dba San Diego State …, priority 2007, published 2010).

These are yes or no findings as the source states them, for the method shown. Binding seen in cells or lysates may run through a third protein. Some binding calls cover weakened binding; strength is not graded here.

As for RRRRRRRRRQQPPVPPQRPMA [R9-QQP, arginine-SLP76 peptide conjugate …], the binding result in experiment [1] and in experiment [2] was “binds” each time.
